Consider one substance from publication PMC11792579.

The chains behind the UniProt entries cited, without tags or fusion partners.
UniProt O95071: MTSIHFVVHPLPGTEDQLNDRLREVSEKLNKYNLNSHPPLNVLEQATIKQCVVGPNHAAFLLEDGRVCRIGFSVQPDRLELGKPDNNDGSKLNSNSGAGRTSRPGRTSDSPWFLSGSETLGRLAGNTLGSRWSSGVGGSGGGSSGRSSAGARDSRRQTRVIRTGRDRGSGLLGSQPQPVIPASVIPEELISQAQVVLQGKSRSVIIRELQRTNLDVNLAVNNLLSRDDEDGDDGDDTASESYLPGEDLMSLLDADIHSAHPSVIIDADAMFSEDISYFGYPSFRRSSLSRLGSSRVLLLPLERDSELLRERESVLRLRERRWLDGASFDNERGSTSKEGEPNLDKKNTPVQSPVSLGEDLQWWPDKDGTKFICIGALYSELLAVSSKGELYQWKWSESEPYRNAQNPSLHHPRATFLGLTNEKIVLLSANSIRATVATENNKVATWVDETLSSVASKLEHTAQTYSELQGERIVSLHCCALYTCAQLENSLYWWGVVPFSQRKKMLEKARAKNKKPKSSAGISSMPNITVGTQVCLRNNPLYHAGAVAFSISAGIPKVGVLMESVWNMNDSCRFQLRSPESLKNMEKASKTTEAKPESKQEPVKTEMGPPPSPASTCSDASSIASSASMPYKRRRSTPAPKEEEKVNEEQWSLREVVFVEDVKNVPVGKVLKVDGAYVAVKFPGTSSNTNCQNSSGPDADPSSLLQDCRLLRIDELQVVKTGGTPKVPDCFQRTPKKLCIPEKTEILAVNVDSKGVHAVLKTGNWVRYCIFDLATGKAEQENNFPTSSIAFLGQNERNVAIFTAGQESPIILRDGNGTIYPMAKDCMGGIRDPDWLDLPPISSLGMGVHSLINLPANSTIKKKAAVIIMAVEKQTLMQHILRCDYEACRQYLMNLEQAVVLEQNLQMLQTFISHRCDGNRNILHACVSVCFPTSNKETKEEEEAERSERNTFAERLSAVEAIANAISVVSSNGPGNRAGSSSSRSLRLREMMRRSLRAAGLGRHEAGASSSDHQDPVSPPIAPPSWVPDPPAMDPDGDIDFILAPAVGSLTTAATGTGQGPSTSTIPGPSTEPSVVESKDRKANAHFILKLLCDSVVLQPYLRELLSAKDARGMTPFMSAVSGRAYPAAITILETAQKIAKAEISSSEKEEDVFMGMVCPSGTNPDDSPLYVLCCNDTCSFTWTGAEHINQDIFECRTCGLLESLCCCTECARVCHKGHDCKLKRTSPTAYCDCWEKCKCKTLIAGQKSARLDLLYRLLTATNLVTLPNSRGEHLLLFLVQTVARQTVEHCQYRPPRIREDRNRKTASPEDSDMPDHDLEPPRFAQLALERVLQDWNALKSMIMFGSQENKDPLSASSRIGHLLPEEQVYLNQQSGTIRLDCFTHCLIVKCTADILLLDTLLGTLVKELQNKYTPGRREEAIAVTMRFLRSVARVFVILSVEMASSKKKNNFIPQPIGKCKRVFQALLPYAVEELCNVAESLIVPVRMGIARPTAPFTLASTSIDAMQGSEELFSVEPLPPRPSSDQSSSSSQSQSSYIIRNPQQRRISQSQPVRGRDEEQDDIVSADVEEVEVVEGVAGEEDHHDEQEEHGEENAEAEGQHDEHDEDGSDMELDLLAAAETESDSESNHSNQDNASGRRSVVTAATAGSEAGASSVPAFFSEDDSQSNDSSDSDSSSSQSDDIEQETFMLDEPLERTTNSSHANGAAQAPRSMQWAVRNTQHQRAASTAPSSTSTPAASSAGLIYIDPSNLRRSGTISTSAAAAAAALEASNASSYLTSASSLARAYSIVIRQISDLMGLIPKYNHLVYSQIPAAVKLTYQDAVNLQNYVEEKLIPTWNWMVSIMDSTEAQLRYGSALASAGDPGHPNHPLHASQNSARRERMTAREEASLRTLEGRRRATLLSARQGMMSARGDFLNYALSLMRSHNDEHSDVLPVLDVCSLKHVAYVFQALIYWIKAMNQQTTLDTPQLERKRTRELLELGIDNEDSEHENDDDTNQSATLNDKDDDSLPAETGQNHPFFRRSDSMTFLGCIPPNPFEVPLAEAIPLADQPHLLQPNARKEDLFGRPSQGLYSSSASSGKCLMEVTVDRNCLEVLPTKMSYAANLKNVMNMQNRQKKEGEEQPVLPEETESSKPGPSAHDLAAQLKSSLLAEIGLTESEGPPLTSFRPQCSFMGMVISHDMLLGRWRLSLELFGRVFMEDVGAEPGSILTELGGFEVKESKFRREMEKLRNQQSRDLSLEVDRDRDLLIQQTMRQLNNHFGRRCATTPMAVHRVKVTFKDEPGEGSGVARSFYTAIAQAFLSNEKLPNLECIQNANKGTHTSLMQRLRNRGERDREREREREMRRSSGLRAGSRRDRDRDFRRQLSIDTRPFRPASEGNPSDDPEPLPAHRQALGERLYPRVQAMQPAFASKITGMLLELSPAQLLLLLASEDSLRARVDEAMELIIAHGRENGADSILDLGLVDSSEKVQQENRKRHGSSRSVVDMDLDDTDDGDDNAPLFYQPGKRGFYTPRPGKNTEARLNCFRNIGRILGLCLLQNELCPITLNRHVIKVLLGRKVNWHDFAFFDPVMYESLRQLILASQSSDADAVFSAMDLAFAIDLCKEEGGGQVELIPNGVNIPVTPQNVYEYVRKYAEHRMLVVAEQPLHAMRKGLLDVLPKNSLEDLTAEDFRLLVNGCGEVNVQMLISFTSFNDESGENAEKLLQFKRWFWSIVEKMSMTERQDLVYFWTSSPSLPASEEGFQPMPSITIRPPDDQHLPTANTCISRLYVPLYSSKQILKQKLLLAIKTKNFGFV

These are yes or no findings as the source states them, for the method shown. Binding seen in cells or lysates may run through a third protein. A yes stands for co-enrichment or nearness to the bait. Other partners may have been found.

For this experiment, the target named is T1, N-acetyltransferase 10 (NAT10), endogenous (human (endogenous in SW620)) (UniProt Q9H0A0).
T1 sequence: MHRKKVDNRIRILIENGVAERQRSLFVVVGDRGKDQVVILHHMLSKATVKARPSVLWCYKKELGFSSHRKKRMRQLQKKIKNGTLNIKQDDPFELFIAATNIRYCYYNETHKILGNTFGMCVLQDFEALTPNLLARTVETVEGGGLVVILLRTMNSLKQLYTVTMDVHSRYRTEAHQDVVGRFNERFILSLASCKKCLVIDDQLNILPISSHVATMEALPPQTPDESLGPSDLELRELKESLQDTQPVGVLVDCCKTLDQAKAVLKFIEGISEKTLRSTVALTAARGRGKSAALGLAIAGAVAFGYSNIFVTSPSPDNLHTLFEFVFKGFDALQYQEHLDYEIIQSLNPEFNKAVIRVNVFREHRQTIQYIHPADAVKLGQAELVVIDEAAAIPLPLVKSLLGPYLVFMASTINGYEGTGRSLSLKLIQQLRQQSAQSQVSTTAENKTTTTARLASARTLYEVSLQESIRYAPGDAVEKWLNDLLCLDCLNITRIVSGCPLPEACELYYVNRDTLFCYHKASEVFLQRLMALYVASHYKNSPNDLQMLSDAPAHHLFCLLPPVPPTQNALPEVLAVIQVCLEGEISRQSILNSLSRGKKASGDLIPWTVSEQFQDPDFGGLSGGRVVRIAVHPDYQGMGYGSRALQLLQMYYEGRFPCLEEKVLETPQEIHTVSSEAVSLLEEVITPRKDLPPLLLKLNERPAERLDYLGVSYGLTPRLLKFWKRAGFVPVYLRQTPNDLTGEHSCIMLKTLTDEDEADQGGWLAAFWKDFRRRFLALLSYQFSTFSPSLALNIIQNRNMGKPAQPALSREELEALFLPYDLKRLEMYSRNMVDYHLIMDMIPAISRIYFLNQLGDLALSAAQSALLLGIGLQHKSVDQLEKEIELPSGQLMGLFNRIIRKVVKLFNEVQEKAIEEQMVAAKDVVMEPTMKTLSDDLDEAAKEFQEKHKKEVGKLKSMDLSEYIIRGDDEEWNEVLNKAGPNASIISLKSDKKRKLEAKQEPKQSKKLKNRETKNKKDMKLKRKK
As to the kind of experiment: affinity purification with mass spectrometry; NAT10-specific complexes from SW620 cells (shNAT10 or control vectors), LC-MS; details in ref. 12.

“Ubiquitin protein ligase E3 component n-recognin 5 (UBR5), endogenous (from UniProt O95071 1-2799)”: the binding result is “binds”.
